Results taken from publication PMC5703050.
Numbering of substitutions follows the chain as printed. Names and notes keep the numbering of the source. No constants are given. Whether binding was seen depends on the method and setting. Binding seen in cells or lysates may run through a third protein. Some entries that bind do so weakly or less than the wild type. Sequences can lack the tags named with a protein.

By UniProt entry, the sequences of proteins in these tests, tags left out.
UniProt P14635: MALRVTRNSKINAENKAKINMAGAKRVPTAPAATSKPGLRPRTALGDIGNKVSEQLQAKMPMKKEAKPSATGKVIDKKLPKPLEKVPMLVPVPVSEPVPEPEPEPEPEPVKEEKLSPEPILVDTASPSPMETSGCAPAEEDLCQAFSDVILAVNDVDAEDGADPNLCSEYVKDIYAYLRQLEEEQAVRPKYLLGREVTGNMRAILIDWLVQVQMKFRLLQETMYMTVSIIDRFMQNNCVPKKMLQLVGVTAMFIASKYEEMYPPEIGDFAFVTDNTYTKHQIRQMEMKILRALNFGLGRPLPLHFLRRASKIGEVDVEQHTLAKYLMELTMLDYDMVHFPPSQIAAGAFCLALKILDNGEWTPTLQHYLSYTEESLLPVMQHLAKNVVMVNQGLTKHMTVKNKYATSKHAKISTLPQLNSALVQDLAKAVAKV

T1: Myc-RPN1 (UniProt P04843)
T1 sequence: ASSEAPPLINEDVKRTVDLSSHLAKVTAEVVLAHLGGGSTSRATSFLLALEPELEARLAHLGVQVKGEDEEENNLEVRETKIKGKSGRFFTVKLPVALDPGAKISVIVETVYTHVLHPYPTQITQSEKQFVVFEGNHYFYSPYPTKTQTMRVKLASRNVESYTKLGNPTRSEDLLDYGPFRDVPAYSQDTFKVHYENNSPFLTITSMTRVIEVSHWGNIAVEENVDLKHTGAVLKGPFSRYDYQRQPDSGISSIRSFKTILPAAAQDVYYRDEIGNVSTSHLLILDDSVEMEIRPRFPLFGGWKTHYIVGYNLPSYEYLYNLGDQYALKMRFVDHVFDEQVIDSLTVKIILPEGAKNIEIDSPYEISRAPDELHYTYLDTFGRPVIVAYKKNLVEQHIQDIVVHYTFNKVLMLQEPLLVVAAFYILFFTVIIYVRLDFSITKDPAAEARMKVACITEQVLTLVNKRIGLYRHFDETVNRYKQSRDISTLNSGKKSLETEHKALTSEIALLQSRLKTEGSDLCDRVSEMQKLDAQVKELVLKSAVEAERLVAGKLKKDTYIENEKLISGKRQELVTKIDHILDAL

T2: TREX1-V5 wild type (human) (UniProt Q9NSU2)
T2 sequence: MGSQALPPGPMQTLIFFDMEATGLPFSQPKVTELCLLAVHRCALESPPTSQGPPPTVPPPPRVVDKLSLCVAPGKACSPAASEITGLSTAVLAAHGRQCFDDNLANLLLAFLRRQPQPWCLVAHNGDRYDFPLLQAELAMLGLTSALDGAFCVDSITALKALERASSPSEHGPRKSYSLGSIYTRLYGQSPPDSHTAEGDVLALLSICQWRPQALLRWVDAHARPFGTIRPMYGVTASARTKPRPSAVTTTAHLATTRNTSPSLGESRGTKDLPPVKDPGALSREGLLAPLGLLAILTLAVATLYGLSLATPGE

B1: TREX1 truncation 1-235, V5-tagged (domain or fragment, UniProt Q9NSU2-3 1-235)
chain: MGSQALPPGPMQTLIFFDMEATGLPFSQPKVTELCLLAVHRCALESPPTSQGPPPTVPPPPRVVDKLSLCVAPGKACSPAASEITGLSTAVLAAHGRQCFDDNLANLLLAFLRRQPQPWCLVAHNGDRYDFPLLQAELAMLGLTSALDGAFCVDSITALKALERASSPSEHGPRKSYSLGSIYTRLYGQSPPDSHTAEGDVLALLSICQWRPQALLRWVDAHARPFGTIRPMYGV
B2: TREX1-V5 wild type (protein, UniProt Q9NSU2-3 1-314)
chain: T2 sequence
B3: TREX1 S78A/S261A, V5-tagged (protein, UniProt Q9NSU2-3 1-314)
chain: T2 sequence with S78A, S261A
B4: TREX1 1-290, V5-tagged (domain or fragment, UniProt Q9NSU2-3 1-290)
chain: MGSQALPPGPMQTLIFFDMEATGLPFSQPKVTELCLLAVHRCALESPPTSQGPPPTVPPPPRVVDKLSLCVAPGKACSPAASEITGLSTAVLAAHGRQCFDDNLANLLLAFLRRQPQPWCLVAHNGDRYDFPLLQAELAMLGLTSALDGAFCVDSITALKALERASSPSEHGPRKSYSLGSIYTRLYGQSPPDSHTAEGDVLALLSICQWRPQALLRWVDAHARPFGTIRPMYGVTASARTKPRPSAVTTTAHLATTRNTSPSLGESRGTKDLPPVKDPGALSREGLLAP
B5: TREX1 truncation 1-272, V5-tagged (domain or fragment, UniProt Q9NSU2-3 1-272)
chain: MGSQALPPGPMQTLIFFDMEATGLPFSQPKVTELCLLAVHRCALESPPTSQGPPPTVPPPPRVVDKLSLCVAPGKACSPAASEITGLSTAVLAAHGRQCFDDNLANLLLAFLRRQPQPWCLVAHNGDRYDFPLLQAELAMLGLTSALDGAFCVDSITALKALERASSPSEHGPRKSYSLGSIYTRLYGQSPPDSHTAEGDVLALLSICQWRPQALLRWVDAHARPFGTIRPMYGVTASARTKPRPSAVTTTAHLATTRNTSPSLGESRGTKD

target: T1, Myc-RPN1; experiment: co-IP; V5-tagged WT, mutant or truncated TREX1 and Myc-RPN1 co-expressed in 293T cells; IP with anti-Myc and Dynabeads Protein G overnight at 4°C; IP buffer 20 mM Tris-HCl pH 7.4, 150 mM NaCl, 0.5% NP-40; washes with 500 mM NaCl and 50 mM NaCl; immunoblot

Row | binding | Molecule
1 | binds weakly | B1
2 | binds | B2
3 | binds | B3
4 | binds | B4
5 | binds | B5

target: T2, TREX1-V5 wild type (human); experiment: co-IP; TREX1-V5 and cyclin B1-Myc6 overexpressed in 293T cells arrested in mitosis by nocodazole; extracts immunoprecipitated with anti-V5 agarose beads, cyclin B detected with anti-Myc antibody

Row | binding | Molecule
6 | binds | Cyclin B1-Myc6 (from UniProt P14635 1-433)
